# In the supplement of paper PMC8728848:
# This is one part of the list.
# B1: AntigenI/IIC123 (Streptococcus mutans), C9E3B4 (protein)
# chain: MASMTGGQQMGRIHFHYFKLAVQPQVNKEIRNNNDINIDRTLVAKQSVVKFQLKTADLPAGRDETTSFVLVDPLPSGYQFNPEATKAASPGFDVTYDNATNTVTFKATAATLATFNADLTKSVATIYPTVVGQVLNDGATYKNNFTLTVNDAYGIKSNVVRVTTPGKPNDPDNPNNNYIKPTKVNKNENGVVIDGKTVLAGSTNYYELTWDLDQYKNDRSSADTIQKGFYYVDDYPEEALELRQDLVKITDANGNEVTGVSVDNYTNLEAAPQEIRDVLSKAGIRPKGAFQIFRADNPREFYDTYVKTGIDLKIVSPMVVKKQMGQTGGSYENQAYQIDFGNGYASNIIINNVPKINPKKDVTLTLDPADTNNVDGQTIPLNTVFNYRLIGGIIPADHSEELFEYNFYDDYDQTGDHYTGQYKVFAKVDITFKDGSIIKSGAELTQYTTAEVDTAKGAITIKFKEAFLRSVSIDSAFQAESYIQMKRIAVGTFENTYINTVNGVTYSSLEHHHHHH
# Assays:
# Assay in all cases: glycan array binding signal (z-score within array); higher = stronger binding
# Conditions in all cases: glycan notation: IUPAC condensed, linker removed
# Glc(b1-6)Glc = target: Glc(b1-6)Glc
# How it was run: (§1)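 Negative Z-scores can be read as non-binding. The Z-score is calculated within each array and then averaged across arrays of one protein sequence at different concentrations or buffers and across linkers. Arrays, 3228 in all, were curated from the Consortium for Functional Glycomics database and kept only where the protein sequence was available.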
# GlcA(b1-3)Gal = target: GlcA(b1-3)Gal
# How it was run: as §1
# GlcA(b1-3)GlcNAc = target: GlcA(b1-3)GlcNAc
# How it was run: as §1
# GlcA(b1-6)Gal = target: GlcA(b1-6)Gal
# How it was run: as §1
# [1] = target: GlcA3S(b1-3)Gal(b1-4)GlcNAc(b1-2)Man
# How it was run: as §1
# [2] = target: GlcA3S(b1-3)Gal(b1-4)GlcNAc(b1-3)Gal(b1-4)Glc
# How it was run: as §1
# [3] = target: GlcNAc(a1-3)Gal(b1-4)GlcNAc
# How it was run: as §1
# [4] = target: GlcNAc(a1-4)Gal(b1-3)GlcNAc
# How it was run: as §1
# [5] = target: GlcNAc(a1-4)Gal(b1-4)GalNAc
# How it was run: as §1
# [6] = target: GlcNAc(a1-4)Gal(b1-4)GlcNAc
# How it was run: as §1
# [7] = target: GlcNAc(a1-4)Gal(b1-4)GlcNAc(b1-3)Gal(b1-4)Glc
# How it was run: as §1
# [8] = target: GlcNAc(a1-4)Gal(b1-4)GlcNAc(b1-3)Gal(b1-4)GlcNAc
# How it was run: as §1
# [9] = target: GlcNAc(a1-4)Gal(b1-4)GlcNAc(b1-3)Gal(b1-4)GlcNAc(b1-3)Gal(b1-4)GlcNAc
# How it was run: as §1
# [10] = target: GlcNAc(a1-4)Gal(b1-4)GlcNAc(b1-3)Gal(b1-4)[Fuc(a1-3)]GlcNAc(b1-3)Gal(b1-4)[Fuc(a1-3)]GlcNAc
# How it was run: as §1
# [11] = target: GlcNAc(a1-6)Gal(b1-4)GlcNAc
# How it was run: as §1
# [12] = target: GlcNAc(b1-2)Gal(b1-3)GalNAc
# How it was run: as §1
# [13] = target: GlcNAc(b1-2)Man(a1-3)[GlcNAc(b1-2)Man(a1-6)]Man(b1-4)GlcNAc(b1-4)GlcNAc
# How it was run: as §1
# [14] = target: GlcNAc(b1-2)Man(a1-3)[GlcNAc(b1-2)Man(a1-6)]Man(b1-4)GlcNAc(b1-4)[Fuc(a1-6)]GlcNAc
# How it was run: as §1
# [15] = target: GlcNAc(b1-2)Man(a1-3)[GlcNAc(b1-4)][GlcNAc(b1-2)Man(a1-6)]Man(b1-4)GlcNAc(b1-4)GlcNAc
# How it was run: as §1
# [16] = target: GlcNAc(b1-2)Man(a1-3)[GlcNAc(b1-4)][GlcNAc(b1-2)Man(a1-6)]Man(b1-4)GlcNAc(b1-4)[Fuc(a1-6)]GlcNAc
# How it was run: as §1
# [17] = target: GlcNAc(b1-2)[GlcNAc(b1-4)]Man(a1-3)[GlcNAc(b1-2)Man(a1-6)]Man(b1-4)GlcNAc(b1-4)GlcNAc
# How it was run: as §1
# [18] = target: GlcNAc(b1-2)[GlcNAc(b1-4)]Man(a1-3)[GlcNAc(b1-4)][GlcNAc(b1-2)Man(a1-6)]Man(b1-4)GlcNAc(b1-4)GlcNAc
# How it was run: as §1
# [19] = target: GlcNAc(b1-2)[GlcNAc(b1-4)]Man(a1-3)[GlcNAc(b1-4)][GlcNAc(b1-2)[GlcNAc(b1-6)]Man(a1-6)]Man(b1-4)GlcNAc(b1-4)GlcNAc
# How it was run: as §1
# [20] = target: GlcNAc(b1-2)[GlcNAc(b1-4)]Man(a1-3)[GlcNAc(b1-4)][GlcNAc(b1-2)[GlcNAc(b1-6)]Man(a1-6)]Man(b1-4)GlcNAc(b1-4)[Fuc(a1-6)]GlcNAc
# How it was run: as §1
# [21] = target: GlcNAc(b1-2)[GlcNAc(b1-6)]Man(a1-6)[GlcNAc(b1-2)Man(a1-3)]Man(b1-4)GlcNAc(b1-4)GlcNAc
# How it was run: as §1
# [22] = target: GlcNAc(b1-2)[GlcNAc(b1-6)]Man(a1-6)[GlcNAc(b1-2)Man(a1-3)]Man(b1-4)GlcNAc(b1-4)[Fuc(a1-6)]GlcNAc
# How it was run: as §1
# [23] = target: GlcNAc(b1-2)[GlcNAc(b1-6)]Man(a1-6)[GlcNAc(b1-4)][GlcNAc(b1-2)Man(a1-3)]Man(b1-4)GlcNAc(b1-4)GlcNAc
# How it was run: as §1
# GlcNAc(b1-3)Fuc = target: GlcNAc(b1-3)Fuc
# How it was run: as §1
# GlcNAc(b1-3)Gal = target: GlcNAc(b1-3)Gal
# How it was run: as §1
# [24] = target: GlcNAc(b1-3)Gal(b1-3)GalNAc
# How it was run: as §1
# GlcNAc(b1-3)Gal(b1-4)Glc = target: GlcNAc(b1-3)Gal(b1-4)Glc
# How it was run: as §1
# [25] = target: GlcNAc(b1-3)Gal(b1-4)GlcNAc
# How it was run: as §1
# [26] = target: GlcNAc(b1-3)Gal(b1-4)GlcNAc(b1-2)Man(a1-3)[GlcNAc(b1-3)Gal(b1-4)GlcNAc(b1-2)Man(a1-6)]Man(b1-4)GlcNAc(b1-4)GlcNAc
# How it was run: as §1
# [27] = target: GlcNAc(b1-3)Gal(b1-4)GlcNAc(b1-2)Man(a1-3)[GlcNAc(b1-3)Gal(b1-4)GlcNAc(b1-2)Man(a1-6)]Man(b1-4)GlcNAc(b1-4)[Fuc(a1-6)]GlcNAc
# How it was run: as §1
# [28] = target: GlcNAc(b1-3)Gal(b1-4)GlcNAc(b1-2)[GlcNAc(b1-3)Gal(b1-4)GlcNAc(b1-6)]Man(a1-6)[GlcNAc(b1-3)Gal(b1-4)GlcNAc(b1-2)Man(a1-3)]Man(b1-4)GlcNAc(b1-4)GlcNAc
# How it was run: as §1
# [29] = target: GlcNAc(b1-3)Gal(b1-4)GlcNAc(b1-3)Gal(b1-4)GlcNAc
# How it was run: as §1
# [30] = target: GlcNAc(b1-3)Gal(b1-4)GlcNAc(b1-3)Gal(b1-4)GlcNAc(b1-2)Man(a1-3)[GlcNAc(b1-3)Gal(b1-4)GlcNAc(b1-3)Gal(b1-4)GlcNAc(b1-2)Man(a1-6)]Man(b1-4)GlcNAc(b1-4)GlcNAc
# How it was run: as §1
binder,measurement,setting,value
B1,glycan array binding signal (z-score),Glc(b1-6)Glc,-1.44
same,glycan array binding signal (z-score),GlcA(b1-3)Gal,-0.936
same,glycan array binding signal (z-score),GlcA(b1-3)GlcNAc,-1.01
same,glycan array binding signal (z-score),GlcA(b1-6)Gal,0.592
same,glycan array binding signal (z-score),[1],-0.897
same,glycan array binding signal (z-score),[2],0.294
same,glycan array binding signal (z-score),[3],-1.29
same,glycan array binding signal (z-score),[4],-0.857
same,glycan array binding signal (z-score),[5],-0.906
same,glycan array binding signal (z-score),[6],-1.06
same,glycan array binding signal (z-score),[7],-1.01
same,glycan array binding signal (z-score),[8],-0.389
same,glycan array binding signal (z-score),[9],0.238
same,glycan array binding signal (z-score),[10],1.62
same,glycan array binding signal (z-score),[11],-1.01
same,glycan array binding signal (z-score),[12],0.93
same,glycan array binding signal (z-score),[13],0.065
same,glycan array binding signal (z-score),[14],2.7
same,glycan array binding signal (z-score),[15],-0.737
same,glycan array binding signal (z-score),[16],-1.21
same,glycan array binding signal (z-score),[17],-0.577
same,glycan array binding signal (z-score),[18],-0.064
same,glycan array binding signal (z-score),[19],-1.08
same,glycan array binding signal (z-score),[20],-0.469
same,glycan array binding signal (z-score),[21],-1.08
same,glycan array binding signal (z-score),[22],1.21
same,glycan array binding signal (z-score),[23],-0.992
same,glycan array binding signal (z-score),GlcNAc(b1-3)Fuc,-0.168
same,glycan array binding signal (z-score),GlcNAc(b1-3)Gal,-0.355
same,glycan array binding signal (z-score),[24],-0.249
same,glycan array binding signal (z-score),GlcNAc(b1-3)Gal(b1-4)Glc,-0.793
same,glycan array binding signal (z-score),[25],-0.299
same,glycan array binding signal (z-score),[26],0.67
same,glycan array binding signal (z-score),[27],1.16
same,glycan array binding signal (z-score),[28],0.352
same,glycan array binding signal (z-score),[29],-0.932
same,glycan array binding signal (z-score),[30],0.502

# Part of the list above in a different format:
binder | measurement | setting | value
B1 | glycan array binding signal (z-score) | [7] | -1.01
same | glycan array binding signal (z-score) | [17] | -0.577
